± gives the standard deviation of the averaged measurements. The list shows a part of the results.
Compound: Nc1nc2c(ncn2[C@@H]2O[C@H](COP(=O)(O)OP(=O)(O)OP(=O)(O)O)[C@@H](O)[C@H]2O)c(=O)[nH]1 [guanosine triphosphate]
Experiment: NP40-soluble protein abundance relative to vehicle (solubility fold change) (ratio); higher = more soluble protein in presence of GTP
Procedure: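 Solubility proteome profiling in Jurkat crude lysate. Lysate was treated with Mg-GTP (0.1-10 mM) for 10 min at room temperature and 3 min at 37 °C, then solubilised with 0.8% NP40 and benzonase, followed by ultracentrifugation. Proteins were quantified by TMT10 LC-MS/MS; the value is the NP40-soluble abundance relative to the NP40-processed vehicle, from 3 independent experiments.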

Protein sequences, listed by entry. Tags and fused reporters are not part of them. Lines headed by an entry give the natural chain unless they say otherwise; changes in a name come on top.
UniProt Q15208: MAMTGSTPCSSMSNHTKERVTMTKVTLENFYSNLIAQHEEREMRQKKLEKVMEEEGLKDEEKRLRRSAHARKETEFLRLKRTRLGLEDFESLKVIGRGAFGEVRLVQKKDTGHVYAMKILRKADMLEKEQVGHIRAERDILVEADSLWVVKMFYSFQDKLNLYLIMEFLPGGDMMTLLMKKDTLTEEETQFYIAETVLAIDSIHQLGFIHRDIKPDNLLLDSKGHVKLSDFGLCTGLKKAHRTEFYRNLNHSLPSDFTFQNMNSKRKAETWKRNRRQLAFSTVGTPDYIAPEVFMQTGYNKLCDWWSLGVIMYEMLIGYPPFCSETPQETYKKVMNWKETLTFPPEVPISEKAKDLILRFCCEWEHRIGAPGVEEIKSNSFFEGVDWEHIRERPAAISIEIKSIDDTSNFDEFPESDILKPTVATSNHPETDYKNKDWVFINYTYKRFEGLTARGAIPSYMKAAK
UniProt Q14739: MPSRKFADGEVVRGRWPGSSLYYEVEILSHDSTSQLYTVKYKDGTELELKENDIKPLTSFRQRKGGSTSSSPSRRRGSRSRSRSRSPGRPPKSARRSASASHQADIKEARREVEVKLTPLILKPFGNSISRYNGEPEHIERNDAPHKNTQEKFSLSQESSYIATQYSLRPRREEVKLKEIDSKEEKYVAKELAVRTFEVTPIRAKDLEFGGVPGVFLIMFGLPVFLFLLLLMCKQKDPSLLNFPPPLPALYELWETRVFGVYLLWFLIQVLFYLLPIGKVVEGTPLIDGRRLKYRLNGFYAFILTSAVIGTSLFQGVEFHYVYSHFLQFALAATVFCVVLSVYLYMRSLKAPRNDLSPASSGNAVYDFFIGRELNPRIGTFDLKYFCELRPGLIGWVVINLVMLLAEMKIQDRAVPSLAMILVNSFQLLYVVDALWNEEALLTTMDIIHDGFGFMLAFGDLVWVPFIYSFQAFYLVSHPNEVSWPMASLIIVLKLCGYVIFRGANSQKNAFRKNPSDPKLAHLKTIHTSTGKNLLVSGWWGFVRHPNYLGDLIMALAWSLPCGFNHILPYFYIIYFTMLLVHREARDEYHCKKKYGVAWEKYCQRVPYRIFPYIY
UniProt Q15075: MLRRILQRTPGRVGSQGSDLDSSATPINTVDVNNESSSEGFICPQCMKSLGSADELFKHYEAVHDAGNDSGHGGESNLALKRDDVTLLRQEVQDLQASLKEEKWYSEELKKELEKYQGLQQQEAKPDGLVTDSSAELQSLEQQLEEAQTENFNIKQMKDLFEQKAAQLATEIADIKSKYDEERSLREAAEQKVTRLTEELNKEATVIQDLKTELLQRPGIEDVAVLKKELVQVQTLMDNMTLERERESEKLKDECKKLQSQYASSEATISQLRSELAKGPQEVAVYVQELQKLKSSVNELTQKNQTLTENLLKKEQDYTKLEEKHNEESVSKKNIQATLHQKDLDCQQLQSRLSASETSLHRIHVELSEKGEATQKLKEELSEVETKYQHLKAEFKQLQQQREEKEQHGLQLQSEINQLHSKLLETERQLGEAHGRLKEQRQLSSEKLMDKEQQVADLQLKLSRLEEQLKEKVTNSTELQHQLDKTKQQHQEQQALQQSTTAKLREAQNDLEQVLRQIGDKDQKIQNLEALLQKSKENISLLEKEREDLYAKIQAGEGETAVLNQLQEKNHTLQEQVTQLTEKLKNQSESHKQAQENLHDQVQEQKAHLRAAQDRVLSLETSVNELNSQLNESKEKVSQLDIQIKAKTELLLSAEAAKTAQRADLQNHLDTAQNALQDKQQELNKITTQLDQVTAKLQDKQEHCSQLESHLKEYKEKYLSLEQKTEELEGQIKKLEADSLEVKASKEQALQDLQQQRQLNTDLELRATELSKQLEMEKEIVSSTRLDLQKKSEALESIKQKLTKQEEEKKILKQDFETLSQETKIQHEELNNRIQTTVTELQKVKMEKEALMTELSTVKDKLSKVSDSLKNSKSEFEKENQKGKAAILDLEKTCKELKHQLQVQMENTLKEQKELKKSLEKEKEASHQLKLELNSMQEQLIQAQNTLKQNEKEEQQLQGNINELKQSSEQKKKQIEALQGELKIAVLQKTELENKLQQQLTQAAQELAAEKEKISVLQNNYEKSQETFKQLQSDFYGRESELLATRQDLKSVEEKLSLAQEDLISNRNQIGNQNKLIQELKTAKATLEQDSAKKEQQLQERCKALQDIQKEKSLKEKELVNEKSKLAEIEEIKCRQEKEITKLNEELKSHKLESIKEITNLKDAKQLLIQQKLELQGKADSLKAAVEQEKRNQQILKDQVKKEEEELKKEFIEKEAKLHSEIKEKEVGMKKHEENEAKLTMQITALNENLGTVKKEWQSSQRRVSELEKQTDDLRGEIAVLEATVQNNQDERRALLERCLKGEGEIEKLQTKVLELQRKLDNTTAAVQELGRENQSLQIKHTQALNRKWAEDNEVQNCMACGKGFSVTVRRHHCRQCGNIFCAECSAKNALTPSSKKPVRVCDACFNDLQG
UniProt Q15257: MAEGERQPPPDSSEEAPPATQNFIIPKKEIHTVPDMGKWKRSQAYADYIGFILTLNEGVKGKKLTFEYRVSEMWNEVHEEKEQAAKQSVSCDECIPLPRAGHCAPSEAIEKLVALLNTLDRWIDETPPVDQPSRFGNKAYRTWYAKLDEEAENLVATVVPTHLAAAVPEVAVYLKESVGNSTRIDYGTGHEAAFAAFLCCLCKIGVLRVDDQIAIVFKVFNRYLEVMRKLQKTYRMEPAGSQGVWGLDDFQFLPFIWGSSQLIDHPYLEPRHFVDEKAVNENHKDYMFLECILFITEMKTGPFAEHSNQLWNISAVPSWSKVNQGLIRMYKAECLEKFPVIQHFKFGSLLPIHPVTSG
UniProt Q15363: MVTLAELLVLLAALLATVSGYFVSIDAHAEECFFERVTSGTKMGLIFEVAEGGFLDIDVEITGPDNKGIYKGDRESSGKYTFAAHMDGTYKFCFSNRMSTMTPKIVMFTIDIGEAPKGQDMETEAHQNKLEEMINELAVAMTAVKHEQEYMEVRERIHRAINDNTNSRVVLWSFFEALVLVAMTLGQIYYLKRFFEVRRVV

## UniProt Q15208
concentration: 0.1mM
  NP40-soluble protein abundance: 1.06 ± 0.11
concentration: 0.5mM
  NP40-soluble protein abundance: 1.06 ± 0.12
concentration: 1mM
  NP40-soluble protein abundance: 0.946 ± 0.14
concentration: 2mM
  NP40-soluble protein abundance: 0.973 ± 0.19
concentration: 4mM
  NP40-soluble protein abundance: 0.935 ± 0.098
concentration: 6mM
  NP40-soluble protein abundance: 0.907 ± 0.088
concentration: 8mM
  NP40-soluble protein abundance: 0.903 ± 0.1
concentration: 10mM
  NP40-soluble protein abundance: 0.875 ± 0.11

## LBR (UniProt Q14739)
concentration: 0.1mM
  NP40-soluble protein abundance: 0.978 ± 0.013
concentration: 0.5mM
  NP40-soluble protein abundance: 0.942 ± 0.061
concentration: 1mM
  NP40-soluble protein abundance: 0.909 ± 0.064
concentration: 2mM
  NP40-soluble protein abundance: 0.845 ± 0.036
concentration: 4mM
  NP40-soluble protein abundance: 0.783 ± 0.058
concentration: 6mM
  NP40-soluble protein abundance: 0.767 ± 0.039
concentration: 8mM
  NP40-soluble protein abundance: 0.785 ± 0.013
concentration: 10mM
  NP40-soluble protein abundance: 0.769 ± 0.013

## EEA1 (UniProt Q15075)
concentration: 0.1mM
  NP40-soluble protein abundance: 0.937 ± 0.075
concentration: 0.5mM
  NP40-soluble protein abundance: 0.913 ± 0.09
concentration: 1mM
  NP40-soluble protein abundance: 0.954 ± 0.099
concentration: 2mM
  NP40-soluble protein abundance: 0.897 ± 0.12
concentration: 4mM
  NP40-soluble protein abundance: 0.907 ± 0.12
concentration: 6mM
  NP40-soluble protein abundance: 0.895 ± 0.11
concentration: 8mM
  NP40-soluble protein abundance: 0.921 ± 0.07
concentration: 10mM
  NP40-soluble protein abundance: 0.932 ± 0.098

## UniProt Q15257 and related entries
concentration: 0.1mM
  NP40-soluble protein abundance: 0.989 ± 0.016
concentration: 0.5mM
  NP40-soluble protein abundance: 0.9682 ± 0.0072
concentration: 1mM
  NP40-soluble protein abundance: 0.927 ± 0.036
concentration: 2mM
  NP40-soluble protein abundance: 0.891 ± 0.051
concentration: 4mM
  NP40-soluble protein abundance: 0.864 ± 0.076
concentration: 6mM
  NP40-soluble protein abundance: 0.853 ± 0.058
concentration: 8mM
  NP40-soluble protein abundance: 0.866 ± 0.067
concentration: 10mM
  NP40-soluble protein abundance: 0.836 ± 0.091

## TMED2 (UniProt Q15363)
concentration: 0.1mM
  NP40-soluble protein abundance: 1.04 ± 0.061
concentration: 0.5mM
  NP40-soluble protein abundance: 1.03 ± 0.032
concentration: 1mM
  NP40-soluble protein abundance: 0.894 ± 0.056
concentration: 2mM
  NP40-soluble protein abundance: 0.894 ± 0.095
concentration: 4mM
  NP40-soluble protein abundance: 0.89 ± 0.055
concentration: 6mM
  NP40-soluble protein abundance: 0.862 ± 0.057
concentration: 8mM
  NP40-soluble protein abundance: 0.841 ± 0.12
concentration: 10mM
  NP40-soluble protein abundance: 0.812 ± 0.14

Source: the supplement of paper PMC6411743
